No constants are given. Whether binding was seen depends on the method and setting. A result given as binding can be weak or reduced; the word gives no strength. For some assays here: In cells and extracts the contact can be indirect.
Legend:
[1] = target: T1, Arabidopsis thaliana PCC1 (Arabidopsis thaliana) (UniProt Q8GWD7); test: cryo-EM structure; AtKEOPS mixed with tRNA^ArgCCU at 1:2; tRNA not seen; six subunits resolved (KAE1, PCC1, PCC1, KAE1, BUD32, CGI121); 3.2 Å after local refinement; both purified
T1 sequence: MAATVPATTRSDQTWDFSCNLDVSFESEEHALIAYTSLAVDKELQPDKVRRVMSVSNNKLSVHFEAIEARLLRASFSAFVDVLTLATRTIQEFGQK

Sequences of proteins named here, by UniProt entry; tags and fusion partners are left off. A change or cut given only in a name is not applied to a line headed by its entry.
UniProt O49653: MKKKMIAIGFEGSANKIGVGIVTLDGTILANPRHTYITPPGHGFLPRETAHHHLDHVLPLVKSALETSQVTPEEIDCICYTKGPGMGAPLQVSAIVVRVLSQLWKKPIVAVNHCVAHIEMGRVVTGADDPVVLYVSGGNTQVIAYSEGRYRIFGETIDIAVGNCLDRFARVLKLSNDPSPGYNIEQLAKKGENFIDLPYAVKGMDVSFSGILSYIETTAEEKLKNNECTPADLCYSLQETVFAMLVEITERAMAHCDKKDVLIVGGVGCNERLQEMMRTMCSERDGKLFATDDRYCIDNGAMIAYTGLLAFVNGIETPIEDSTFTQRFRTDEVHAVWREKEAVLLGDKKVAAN

[2] = target: T1, Arabidopsis thaliana PCC1 (Arabidopsis thaliana); test: co-purification (Ni-NTA affinity, then SEC); subunits co-expressed in E. coli from one plasmid with 6His on one subunit; Ni-NTA then SEC, SDS–PAGE; lysis buffer 20 mM Tris–HCl pH 7.5, 300 mM NaCl, 5 mM β-mercaptoethanol

binding [1]: binds
binding [2]: binds
Substance: Arabidopsis thaliana KAE1 (from UniProt O49653)
